Results as given in patent US20040038290A1 (ROCKEFELLER UNIVERSITY, published 2004).
These are yes or no findings as the source states them, for the method shown. For some of these results: Binding seen in cells or lysates may run through a third protein. Some binding calls cover weakened binding; strength is not graded here. For some of these results: Where a sequence is shown, tags or fusion partners need not be part of it. Each block holds one binder with its values, some of them ahead of it.

Assays:
[1] = target: T1, Aquifex aeolicus tau subunit of DNA polymerase III (Aquifex aeolicus); assay: MonoQ co-elution of mixed pure subunits, SDS gel
T1 sequence: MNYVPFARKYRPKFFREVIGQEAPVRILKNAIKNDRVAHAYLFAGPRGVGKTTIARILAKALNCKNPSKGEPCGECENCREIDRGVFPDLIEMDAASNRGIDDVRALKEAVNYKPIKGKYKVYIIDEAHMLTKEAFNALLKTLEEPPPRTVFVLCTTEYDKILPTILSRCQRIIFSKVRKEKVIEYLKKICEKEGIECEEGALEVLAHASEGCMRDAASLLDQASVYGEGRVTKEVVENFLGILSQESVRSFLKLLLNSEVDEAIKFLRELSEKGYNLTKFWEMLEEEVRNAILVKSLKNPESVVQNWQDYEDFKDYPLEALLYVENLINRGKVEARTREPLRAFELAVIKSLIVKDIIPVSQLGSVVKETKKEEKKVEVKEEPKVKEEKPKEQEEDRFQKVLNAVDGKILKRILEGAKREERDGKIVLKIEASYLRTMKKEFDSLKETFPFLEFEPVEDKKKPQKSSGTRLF

[2] = target: T2, Aquifex aeolicus δ subunit of DNA polymerase III (Aquifex aeolicus) (UniProt O67189); assay: complex constitution from pure subunits, column chromatography
T2 sequence: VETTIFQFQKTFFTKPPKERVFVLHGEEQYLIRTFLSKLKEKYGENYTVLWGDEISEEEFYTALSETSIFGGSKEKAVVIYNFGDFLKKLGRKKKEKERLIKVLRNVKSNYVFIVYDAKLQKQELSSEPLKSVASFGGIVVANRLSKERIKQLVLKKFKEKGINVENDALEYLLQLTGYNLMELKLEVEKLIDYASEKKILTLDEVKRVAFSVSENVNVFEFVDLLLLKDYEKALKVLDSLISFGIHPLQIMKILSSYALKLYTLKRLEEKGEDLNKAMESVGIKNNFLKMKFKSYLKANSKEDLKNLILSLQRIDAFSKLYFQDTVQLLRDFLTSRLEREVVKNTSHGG

[3] = target: T3, Aquifex aeolicus δ′ subunit of DNA polymerase III (Aquifex aeolicus); assay: as above
T3 sequence: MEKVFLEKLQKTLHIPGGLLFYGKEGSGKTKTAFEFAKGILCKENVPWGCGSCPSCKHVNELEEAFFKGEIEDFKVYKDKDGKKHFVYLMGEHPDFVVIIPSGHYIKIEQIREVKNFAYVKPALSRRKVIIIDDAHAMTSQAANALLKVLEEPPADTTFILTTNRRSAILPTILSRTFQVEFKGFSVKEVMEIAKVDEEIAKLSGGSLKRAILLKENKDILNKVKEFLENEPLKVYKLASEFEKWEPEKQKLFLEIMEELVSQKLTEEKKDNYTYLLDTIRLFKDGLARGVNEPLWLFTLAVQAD

[4] = target: T4, His-tagged recombinant Thermus thermophilus tau subunit (dnaX full length product) (Thermus thermophilus); assay: Superose 12 gel filtration
T4 sequence: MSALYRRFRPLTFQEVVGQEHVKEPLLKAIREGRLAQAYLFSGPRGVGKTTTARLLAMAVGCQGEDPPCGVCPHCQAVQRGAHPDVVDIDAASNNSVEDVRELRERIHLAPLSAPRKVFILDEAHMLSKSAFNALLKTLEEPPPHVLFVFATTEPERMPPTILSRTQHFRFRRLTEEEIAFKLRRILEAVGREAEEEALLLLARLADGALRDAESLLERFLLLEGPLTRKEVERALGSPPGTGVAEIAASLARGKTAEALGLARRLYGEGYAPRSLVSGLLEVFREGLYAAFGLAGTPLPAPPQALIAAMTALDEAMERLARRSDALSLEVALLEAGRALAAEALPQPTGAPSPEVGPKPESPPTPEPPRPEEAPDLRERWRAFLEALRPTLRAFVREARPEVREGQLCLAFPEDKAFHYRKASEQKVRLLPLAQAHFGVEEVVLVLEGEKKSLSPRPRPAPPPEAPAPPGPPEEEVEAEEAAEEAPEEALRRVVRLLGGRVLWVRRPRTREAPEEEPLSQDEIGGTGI

- binding [1]: binds
B1: Aquifex aeolicus δ′ subunit of DNA polymerase III (protein)
chain: T3 sequence

- binding [2]: binds
- binding [3]: binds
B2: Aquifex aeolicus tau subunit of DNA polymerase III (other)
chain: T1 sequence
notes: Recombinant, expressed in E. coli from pETAadnaX (pET24); also called A.ae. tau

- binding [4]: binds
B3: His-tagged recombinant Thermus thermophilus γ subunit (dnaX frameshift product) (protein, not shown: small tags and cut ends)
chain: MSALYRRFRPLTFQEVVGQEHVKEPLLKAIREGRLAQAYLFSGPRGVGKTTTARLLAMAVGCQGEDPPCGVCPHCQAVQRGAHPDVVDIDAASNNSVEDVRELRERIHLAPLSAPRKVFILDEAHMLSKSAFNALLKTLEEPPPHVLFVFATTEPERMPPTILSRTQHFRFRRLTEEEIAFKLRRILEAVGREAEEEALLLLARLADGALRDAESLLERFLLLEGPLTRKEVERALGSPPGTGVAEIAASLARGKTAEALGLARRLYGEGYAPRSLVSGLLEVFREGLYAAFGLAGTPLPAPPQALIAAMTALDEAMERLARRSDALSLEVALLEAGRALAAEALPQPTGAPSPEVGPKPESPPTPEPPRPEEAPDLRERWRAFLEALRPTLRAFVREARPEVREGQLCLAFPEDKAFHYRKASEQKVRLLPLAQAHFGVEEVVLVLEGEKKKA
